Measured values: the odorant receptor screen of Mainland et al. (2015)
Values joined by “and” are separate entries in the source; they are usually repeats but may differ in a detail not shown here. Identical values can stand only once. The list shows a part of the results. Each value is one well over the wells without odorant, computed here; the data are noisy.

test system: OR10A7 clone 1252; experiment: odorant receptor activation (CRE luciferase / Renilla) (fold of no-odor wells); higher = more activation; conditions: 100 µM

| Compound | odorant receptor activation |
| --- | --- |
| CCCCCCCCC=O [nonyl aldehyde] | 0.984 |
| C=CC(C)(O)CCC=C(C)C (centres undefined) [linalool] | 1.15 |
| CC(C)=CCCC(C)=CC=O [citral] | 1.08 |
| C=CCc1ccc(O)c(OC)c1 [eugenol] | 0.659 and 1.41 |
| CC(C)CCC(=O)O [4-methylvaleric acid] | 1.4 |
| COc1cc(C)ccc1O [2-methoxy-4-methylphenol] | 1.04 |
| CC1CCC(C(C)C)C(O)C1 (single isomer, unassigned; (+)) [(+)-menthol] | 1.22 |
| CCCCCCCC=O [octyl aldehyde] | 1 |
| CC(C)C(=O)O [isobutyric acid] | 1.07 and 0.984 |
| C=C(C)C1CC=C(C)C(=O)C1 (centres undefined) [r-carvone] | 0.825 |
| CCCCCCCCCC=O [decyl aldehyde] | 1.31 |
| CC1=CCC(C(C)(C)O)CC1 (centres undefined) [terpineol] | 0.907 |
| CC(C)C=O [isobutyraldehyde] | 0.719 and 0.958 |
| CC(C)CC(=O)O [isovaleric acid] | 0.851 |
| CC1CCC(C(C)C)C(O)C1 (single isomer, unassigned; (-)) [(-)-menthol] | 0.915 |
| CC12CCC(CC1)C(C)(C)O2 [cineole] | 0.946 |
| COC(=O)c1ccccc1O [methyl salicylate] | 0.646 |
| CCCCO [1-butanol] | 1.41 |
| CCCCCCCC=CC=O [2-decenal] | 1.49 |
| CC12CCC(C1)C(C)(C)C2=O (centres undefined) [fenchone] | 1.06 |
| CCCC(=O)O [butyric acid] | 0.968 |
| c1ccc(Oc2ccccc2)cc1 [diphenyl ether] | 0.99 |
| C=CCSCC=C [diallyl sulfide] | 1.01 |
| CCCCCCCCCCC=O [undecanal] | 1.08 |
| CCCCCCCCOC(C)=O [octyl acetate] | 1.25 |
| CC/C=C\CCO [cis-3-hexen-1-ol] | 0.887 |
| c1cnccn1 [pyrazine] | 0.871 |
| O=C1CCCCCCCCCCCCCCO1 [pentadecalactone] | 0.696 |

test system: OR10AD1 R166Q/S177N/W198R clone 1524; experiment: as above; conditions: 100 µM

| Compound | odorant receptor activation |
| --- | --- |
| CCCCCCCCC=O [nonyl aldehyde] | 1.03 |
| C=CC(C)(O)CCC=C(C)C (centres undefined) [linalool] | 1.09 |
| CC(C)=CCCC(C)=CC=O [citral] | 1.04 |
| C=CCc1ccc(O)c(OC)c1 [eugenol] | 2.15 and 1.03 and 1.29 |
| CC(C)CCC(=O)O [4-methylvaleric acid] | 1.12 |
| COc1cc(C)ccc1O [2-methoxy-4-methylphenol] | 0.834 |
| CC1CCC(C(C)C)C(O)C1 (single isomer, unassigned; (+)) [(+)-menthol] | 1.2 |
| CCCCCCCC=O [octyl aldehyde] | 1.02 |
| CC(C)C(=O)O [isobutyric acid] | 0.934 and 0.889 |
| C=C(C)C1CC=C(C)C(=O)C1 (centres undefined) [r-carvone] | 0.882 |
| CCCCCCCCCC=O [decyl aldehyde] | 1.02 |
| CC1=CCC(C(C)(C)O)CC1 (centres undefined) [terpineol] | 0.97 |
| CC(C)C=O [isobutyraldehyde] | 1.27 and 1.14 |
| CC(C)CC(=O)O [isovaleric acid] | 0.954 |
| CC1CCC(C(C)C)C(O)C1 (single isomer, unassigned; (-)) [(-)-menthol] | 3.68 |
| CC12CCC(CC1)C(C)(C)O2 [cineole] | 1.04 |
| COC(=O)c1ccccc1O [methyl salicylate] | 0.941 |
| CCCCO [1-butanol] | 1.36 |
| CCCCCCCC=CC=O [2-decenal] | 1.47 |
| CC12CCC(C1)C(C)(C)C2=O (centres undefined) [fenchone] | 1.13 |
| CCCC(=O)O [butyric acid] | 1.24 |
| c1ccc(Oc2ccccc2)cc1 [diphenyl ether] | 1.15 |
| C=CCSCC=C [diallyl sulfide] | 1.18 |
| CCCCCCCCCCC=O [undecanal] | 1 |
| CCCCCCCCOC(C)=O [octyl acetate] | 1.14 |
| CC/C=C\CCO [cis-3-hexen-1-ol] | 0.957 |
| c1cnccn1 [pyrazine] | 0.725 |
| O=C1CCCCCCCCCCCCCCO1 [pentadecalactone] | 0.85 |

test system: OR10AG1 clone 1251; experiment: as above; conditions: 100 µM

| Compound | odorant receptor activation |
| --- | --- |
| CCCCCCCCC=O [nonyl aldehyde] | 0.957 |
| C=CC(C)(O)CCC=C(C)C (centres undefined) [linalool] | 0.878 |
| CC(C)=CCCC(C)=CC=O [citral] | 1.29 |
| C=CCc1ccc(O)c(OC)c1 [eugenol] | 2.07 and 1.14 |
| CC(C)CCC(=O)O [4-methylvaleric acid] | 1.4 |
| COc1cc(C)ccc1O [2-methoxy-4-methylphenol] | 1.43 |
| CC1CCC(C(C)C)C(O)C1 (single isomer, unassigned; (+)) [(+)-menthol] | 1.24 |
| CCCCCCCC=O [octyl aldehyde] | 0.97 |
| CC(C)C(=O)O [isobutyric acid] | 0.73 and 1.04 |
| C=C(C)C1CC=C(C)C(=O)C1 (centres undefined) [r-carvone] | 0.844 |
| CCCCCCCCCC=O [decyl aldehyde] | 1.1 |
| CC1=CCC(C(C)(C)O)CC1 (centres undefined) [terpineol] | 1.01 |
| CC(C)C=O [isobutyraldehyde] | 0.773 and 1.03 |
| CC(C)CC(=O)O [isovaleric acid] | 0.864 |
| CC1CCC(C(C)C)C(O)C1 (single isomer, unassigned; (-)) [(-)-menthol] | 0.589 |
| CC12CCC(CC1)C(C)(C)O2 [cineole] | 1 |
| COC(=O)c1ccccc1O [methyl salicylate] | 0.96 |
| CCCCO [1-butanol] | 1.49 |
| CCCCCCCC=CC=O [2-decenal] | 1.85 |
| CC12CCC(C1)C(C)(C)C2=O (centres undefined) [fenchone] | 0.783 |
| CCCC(=O)O [butyric acid] | 1.19 |
| c1ccc(Oc2ccccc2)cc1 [diphenyl ether] | 0.818 |
| C=CCSCC=C [diallyl sulfide] | 0.901 |
| CCCCCCCCCCC=O [undecanal] | 0.993 |
| CCCCCCCCOC(C)=O [octyl acetate] | 0.953 |
| CC/C=C\CCO [cis-3-hexen-1-ol] | 1.1 |
| c1cnccn1 [pyrazine] | 0.803 |
| O=C1CCCCCCCCCCCCCCO1 [pentadecalactone] | 0.81 |
